Among the data in PMC7801519 are binding values, retold here.

For the test, the target named is T1, Flag-PBK (human) (UniProt Q96KB5).
T1 sequence: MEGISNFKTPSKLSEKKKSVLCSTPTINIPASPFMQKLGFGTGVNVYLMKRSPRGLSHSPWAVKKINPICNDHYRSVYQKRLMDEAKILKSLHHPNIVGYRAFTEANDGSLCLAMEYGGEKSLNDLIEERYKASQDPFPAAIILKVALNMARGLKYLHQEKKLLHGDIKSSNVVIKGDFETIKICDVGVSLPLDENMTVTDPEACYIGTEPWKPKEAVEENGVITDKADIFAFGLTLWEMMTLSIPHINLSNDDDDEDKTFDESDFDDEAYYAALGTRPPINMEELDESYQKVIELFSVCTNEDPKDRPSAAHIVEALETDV
The test can be described thus: co-IP; 293T cells co-transfected with Myc-MSL1 and vector, Flag-GFP or Flag-PBK for 36 h; IP lysis buffer (50 mM Tris-Cl pH 7.4, 150 mM NaCl, 0.5% NP-40, 5 mM EDTA); antibodies or Flag-beads overnight at 4 °C; immunoblotting. On the technique in general: A western blot detects proteins with antibodies after separation by electrophoresis.

These are yes or no findings as the source states them, for the method shown. In cells and extracts the contact can be indirect. Binding can be weak; no strength is given. Tags and fused reporters may be left off the sequences shown.

With Myc-MSL1 (human), the binding entry is recorded as “binds”.
